Assay results as given in PubChem BioAssay (NCATS).
Several values for one entry are separate records, joined by “and”; a condition that tells them apart may be missing. Identical values can stand only once. The list shows a part of the results. These are further read-outs of the screen, such as a control signal, another cell line or another target. No call is given for them. For some assays here: Compounds called inactive in the main read-out are mostly missing here. For some assays here: The note in brackets gives the kind of curve behind each potency; many fits are weak.

Amino acid sequences for entries named in this document (tags omitted). A change or cut given only in a name is not applied to a line headed by its entry.
UniProt P50135: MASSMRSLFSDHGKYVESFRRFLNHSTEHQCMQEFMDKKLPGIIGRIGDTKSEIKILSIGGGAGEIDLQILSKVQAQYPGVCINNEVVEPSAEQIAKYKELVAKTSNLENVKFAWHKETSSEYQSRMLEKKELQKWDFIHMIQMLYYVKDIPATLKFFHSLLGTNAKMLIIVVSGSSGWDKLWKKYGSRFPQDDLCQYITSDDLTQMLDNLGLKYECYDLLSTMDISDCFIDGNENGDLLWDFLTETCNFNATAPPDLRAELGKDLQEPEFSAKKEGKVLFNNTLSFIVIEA

Tests used:
[1] = Validation of Assay for Modulators of Lamin A Splicing (AID 1459); conditions: Lamin A splicing dual RFP/GFP fluorescence reporter, ratio
Outline: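 S3 HeLa cells stably expressing a lamin A-EGFP splicing minigene and DsRed2 were seeded at 600 cells/well in Opti-MEM with 2% FBS, pin-dosed, and incubated 48 hrs at 37 °C, 5% CO2. Laser-scanning cytometry (488 nm) gave GFP/RFP total intensity ratio.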

[2] = qHTS Assay for Lipid Storage Modulators (AID 1519); conditions: Drosophila S3 cells, BODIPY lipid droplet/cell ratio, laser cytometry, cells loaded with oleic acid
Outline: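 Cells seeded at 5,000 per well were treated with compounds over a concentration series and loaded with oleic acid (400 uM, as added). Lipid droplet fluorescence (488 nm excitation, 500-530 nm channel) was read by laser-scanning cytometry and normalized to 20 uM Triacsin C.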

[3] = target: Histamine N-methyltransferase (Homo sapiens) (UniProt P50135); experiment: Confirmatory Screen for Target Class Profiling of Small Molecule Inhibitors of Methyltransferases (AID 1745852); conditions: MTase-Glo luminescence, SAH detection, recombinant enzyme; measured here: HNMT inhibition potency
[4] = qHTS Assay for Modulators of Human Peripheral Myelin Protein 22 (PMP22) Expression/Activity (AID 1967); conditions: Cell-based PMP22 reporter, dual-color luciferase ratio
Outline: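 MSC80 mouse Schwann cells stably carrying Pmp22 promoter–green click beetle luciferase plus EF-alpha–red luciferase control were dosed for 24h at 37 °C. Dual-colour luminescence was filter-overlap corrected; %Activity came from green/red ratio versus untreated cells.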

[5] = qHTS Validation Assay to Find Inhibitors of Chronic Active B-Cell Receptor Signaling (AID 485345); conditions: ABC-DLBCL cells, chronic BCR signaling reporter
Outline: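 TMD8 ABC-DLBCL cells stably carrying doxycycline-inducible IkappaBalpha–green luciferase fusion plus unfused red luciferase; compounds 46 uM to 3 nM, 4 h at 37C with doxycycline. Corrected green/red luminescence ratio normalized to 10 uM MG-132 and basal cell wells; curves fitted.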

[6] = NCATS anti-infectives library activity on the primary C. elegans qHTS viability assay (AID 1745855); conditions: C. elegans worm area imaging
Outline: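 Titration-based screen in worms: eggs hatched overnight in M9, L1 larvae fed TOP10 capsules in S medium with compound, incubated 21 °C for 7 days; fluorescent objects gated by size and intensity at days 0, 3 and 7.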

[7] = qHTS for identification of novel therapeutic agents for treatment of microphthalmiaassociated transcription factor (MiT) renal cell carcinoma (RCC) (AID 1963991); conditions: CellTiter-Glo, 48 h; for z-score: stronger effect = lower value
Outline: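 Curves over 11 concentrations were fitted to CellTiter-Glo luminescence, scaled between empty wells (0%) and DMSO (100%) viability. Cells were UOK109, UOK124 and UOK145 TFE3-fusion RCC lines at 500/well, exposed 48 hours at 37 C.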

[8] = Cell-based coincidence reporter assay to measure PMP22 gene transcription in S16 Pmp22-F2sN cells - Confirmatory screen (AID 1508646); conditions: S16 Schwann cells Pmp22-F2sN, dual luciferase, 24 h
Outline: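 S16 rat Schwann cells carrying FLuc-2A-NLuc reporter in Pmp22 3' UTR (500-1,000 cells/well) treated with pinned compounds for 24 h at 37C. Dual-luciferase reads: FLuc luminescence first, then NLuc after Stop&Glo.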

[9] = Nrf2 qHTS screen for inhibitors: Validation (AID 493153); conditions: A549 ARE-Fluc reporter, 18-24 h; AC50: CellTiter-Fluor fluorescence read, measured here: cytotoxicity CellTiter-Fluor AC50; viability change: measured here: cytotoxicity max response
Outline: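 Concentration-response test in A549 ARE_Fluc reporter cells (5% FBS OPTI-MEM), compound exposure 18-24 h at 37°C, 5% CO2. Cell viability measured first by CellTiter-Fluor fluorescence; ARE-driven luciferase luminescence then measured as Nrf2 activity.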

[10] = qHTS Assay for Inhibitors of PDE-IV (AID 607); conditions: HEK293 ACTOne CNG channel cells, membrane potential fluorescence; measured here: parental cell counter-screen
Outline: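 Cell-based read-out of cAMP via a modified cyclic nucleotide-gated channel and membrane potential dye (535/590 nm) in HEK293 cells expressing PDE4 endogenously. Compounds tested up to 22.9 uM final; 100 uM RO 20-1724 reference.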

[11] = A High-Content qHTS Against Drug Library for the Identification of Small Molecules that Inhibit DYT1 Early Onset Primary Dystonia-Associated Cell Pathology (AID 1645839); conditions: HEK293 Flp-In EGFP-delE TorsinA, punctate imaging, 48 h; measured here: cell count cytotoxicity
Outline: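 Cells were seeded and left for 24 h, then dosed with compound alongside tetracycline induction of mutant EGFP-TorsinA. They were incubated for 48 h, fixed in 4% paraformaldehyde, permeabilized and imaged for mislocalization (%pathology) and cell count.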

[12] = qHTS drug screen for cell cycle checkpoint inhibitors in PARPi-resistant BRCA-mutant ovarian cancer cell lines. (AID 1963452); conditions: PEO1/OlaR viability, CellTiter-Glo luminescence, 96 h; measured here: PEO4 viability
Outline: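 PEO1, PEO4 and PEO1/OlaR ovarian cancer cells, 600 per well, exposed 96 h at 37C to a dilution series. Viability read by CellTiter-Glo luminescence, normalized to DMSO and empty wells; activity summarized as Z-AUC.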

[13] = measured here: cell count channel max response
[14] = measured here: lipid channel max response
[15] = measured here: green reporter channel AC50, mouse Pmp22 promoter in mouse Schwann cells
[16] = measured here: red reporter channel AC50, EF-alpha promoter control reporter in MSC80 mouse Schwann cells
[17] = measured here: CBR control luciferase (viability counter)
[18] = TFE3-RCC UOK109 viability, measured here: UOK109 Z-AUC
[19] = TFE3-RCC viability, measured here: UOK124 Z-AUC
[20] = TFE3-RCC viability, measured here: UOK124 cell viability
[21] = TFE3-RCC viability, measured here: UOK145 Z-AUC
[22] = TFE3-RCC viability, measured here: UOK145 cell viability
[23] = measured here: NLuc reporter channel
[24] = measured here: CBG/CBR ratio read-out

Cc1c(OCC(F)(F)F)ccnc1CS(=O)c1nc2ccccc2[nH]1 (stereo unspecified)
AC50 ([1]; measured here: GFP channel): 12.6 µM [falling, partial curve, poor fit]
max response [2, 13]: -23.2%
max response [2, 14]: -24.5%
IC50 [3]: 21.7 µM [falling, partial curve]

COc1cc2nc(N3CCN(C(=O)C4COc5ccccc5O4)CC3)nc(N)c2cc1OC (stereo unspecified)
AC50 ([1]; measured here: GFP channel): 35.5 µM [rising, single point]
max response [2, 13]: 53.9%
max response [2, 14]: 54.6%
AC50 [4, 15]: 33.8 µM [falling, full curve]
AC50 [4, 16]: 26.9 µM [falling, full curve]
AC50 [5, 17]: 2.59 µM [rising, full curve]
AC50 ([6]; day 7, measured here: worm number): 25.8 µM [falling, partial curve, poor fit]
AC50 ([6]; day 7, measured here: worm area, day 3): 5.78 µM [falling, partial curve, poor fit]
AC50 ([6]; day 7, measured here: worm number, day 3): 25.8 µM [falling, single point]
z-score [7, 18]: 0.449
z-score [7, 19]: 0.267
AC50 [7, 20]: 23.5 µM [falling, partial curve]
z-score [7, 21]: 0.654
AC50 [7, 22]: 29.6 µM [falling, single point]

COc1ccc(N2CCN(C(=O)c3ccc4c(c3)N(Cc3ccc(F)cc3)C(=O)c3ccccc3S4=O)CC2)cc1 (stereo unspecified)
AC50 [8, 23]: 4.85 µM [falling, full curve]

CC1CNCCN1S(=O)(=O)c1cccc2cnccc12 (stereo unspecified)
AC50 ([1]; measured here: RFP channel): 20 µM [falling, single point]
AC50 [4, 15]: 95.3 µM [falling, single point]
AC50 [4, 16]: 60.1 µM [falling, partial curve]
AC50 [5, 17]: 18.4 µM [falling, partial curve]
viability change [9]: -17.1%

CCN(CC)S(=O)(=O)c1ccc(C(=O)NCCSc2c(-c3ccc(OC)cc3)[nH]c3ccccc23)cc1
AC50 ([8]; measured here: FLuc reporter channel): 0.0039 µM [falling, single point]

CC#CCOC(=O)c1c(C)nc2sc3c(c2c1N)CCC(O)C3 (stereo unspecified)
AC50 ([1]; measured here: GFP channel): 1.41 µM [rising, partial curve, poor fit]
AC50 [4, 16]: 42.6 µM [falling, partial curve]
viability change [9]: -4.92%

COc1ccccc1N1CCN(CCN(C(=O)C2CCCCC2)c2ccccn2)CC1
AC50 ([1]; measured here: RFP channel): 10 µM [falling, partial curve]
max response [2, 13]: 50.5%
max response [2, 14]: 48.8%
AC50 [4, 15]: 75.7 µM [falling, single point]
AC50 [4, 16]: 67.5 µM [falling, partial curve]
viability change [9]: -8.53%
z-score [7, 18]: 0.384
z-score [7, 19]: 0.435
z-score [7, 21]: 0.286
AC50 [7, 22]: 18.7 µM [falling, partial curve]

O=C(O)c1cccnc1Nc1cccc(C(F)(F)F)c1
AC50 [10]: 0.00501 µM [rising, full curve, poor fit]
AC50 ([1]; measured here: RFP channel): 14.1 µM [falling, partial curve]
max response [2, 13]: 22%
AC50 ([2]; measured here: lipid (BODIPY) channel AC50): 39.8 µM [rising, single point]
max response [2, 14]: 45.1%
AC50 [4, 15]: 0.301 µM [rising, full curve]
AC50 [4, 16]: 37.9 µM [falling, partial curve, poor fit]
AC50 [5, 24]: 16.4 µM [falling, partial curve]
AC50 [5, 17]: 8.2 µM [falling, partial curve]
viability change [9]: -6.38%
AC50 [11]: 14.1 µM [falling, single point]

N#CC(=C(\N)Sc1ccccc1N)/C(C#N)=C(/N)Sc1ccccc1N
AC50 ([1]; measured here: GFP channel): 2.82 µM [falling, partial curve, poor fit]
AC50 [5, 24]: 18.4 µM [falling, partial curve]
AC50 [5, 17]: 6.51 µM [falling, full curve]
viability change [9]: -8.46%

Cc1ccccc1Cn1c(=O)n(CC2CCC(C(=O)N3CCOCC3)CC2)c(=O)c2sccc21 (stereo unspecified)
AC50 [8, 23]: 17.2 µM [falling, partial curve, poor fit]

CNCCNS(=O)(=O)c1cccc2cnccc12
AC50 ([1]; measured here: RFP channel): 20 µM [falling, partial curve]
AC50 [4, 15]: 30.1 µM [rising, partial curve, poor fit]
AC50 [5, 17]: 18.4 µM [falling, partial curve, poor fit]
viability change [9]: -6.25%

CN(C)CCCN1c2ccccc2CCc2ccc(Cl)cc21
AC50 ([1]; measured here: RFP channel): 2.82 µM [falling, full curve, poor fit]
max response [2, 13]: 35.1% and 32.5%
max response [2, 14]: 40.9% and 30.3%
AC50 [4, 15]: 42.6 µM [falling, full curve]
AC50 [4, 16]: 37.9 µM [falling, full curve]
AC50 [5, 17]: 6.51 µM [rising, single point]
AC50 [11]: 3.98 µM [falling, full curve]
AC50 [12]: 17.4 µM [falling, partial curve, poor fit]
z-score [7, 18]: -1.89
z-score [7, 19]: 0.146
AC50 [7, 20]: 23.5 µM [falling, partial curve]
z-score [7, 21]: -1.11
AC50 [7, 22]: 1.32 µM [falling, full curve]
